Test results reported in patent US20150037335A1.
These are yes or no findings as the source states them, for the method shown. Some binding calls cover weakened binding; strength is not graded here. Where a sequence is shown, tags or fusion partners need not be part of it.

Assays:
[1] = molecular target: T1, BDNF (from R and D systems) (Homo sapiens (Human)) (UniProt P23560); experiment: SPR (Biacore), p75NTR(NBP)-Fc immobilised, BDNF 20 nM injected
T1 sequence: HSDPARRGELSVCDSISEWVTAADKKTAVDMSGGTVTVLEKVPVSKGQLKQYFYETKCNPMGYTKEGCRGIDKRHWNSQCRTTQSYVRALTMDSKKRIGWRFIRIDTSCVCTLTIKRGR

[2] = molecular target: T1, BDNF (from R and D systems) (Homo sapiens (Human)); experiment: SPR (Biacore), p75NTR(NBP)-Fc immobilised on the chip, 20 nM BDNF injected for 30 s at 50 ul/min
[3] = molecular target: T1, BDNF (from R and D systems) (Homo sapiens (Human)); experiment: SPR (Biacore), p75NTR(NBP)-Fc immobilised, BDNF injected

Measured: binding

B1: p75NTR(NBP)-Fc (p75NTR(NBP) SEQ ID NO. 2 coupled to IgG-Fc SEQ ID NO. 12 using linker SEQ ID NO 17) (Fc fusion)
chain: KEACPTGLYTHSGECCKACNLGEGVAQPCGANQTVCEPCLDSVTFSDVVSATEPCKPCTECVGLQSMSAPCVEADDAVCRCAYGYYQDETTGRCEACRVCEAGSGLVFSCQDKQNTVCEECPDGTYSDEANHVDPCLPCTVCEDTERQLRECTRWADAECEEIPGRWITRSTPPEGSDSTAPSTQEPEAPPEQDLIASTVAGVVTTVMGSSQPVVTRGTTDNGGGGSASTKGPSVFPLAPCSRSTSESTAALGCLVKDYFPEPVTVSWNSGALTSGVHTFPAVLQSSGLYSLSSVVTVTSSNFGTQTYTCNVDHKPSNTKVDKTVERKCCVECPPCPAPPVAGPSVFLFPPKPKDTLMISRTPEVTCVVVDVSHEDPEVQFNWYVDGMEVHNAKTKPREEQFNSTFRVVSVLTVVHQDWLNGKEYKCKVSNKGLPAPIEKTISKTKGQPREPQVYTLPPSREEMTKNQVSLTCLVKGFYPSDIAVEWESNGQPENNYKTTPPMLDSDGSFFLYSKLTVDKSRWQQGNVFSCSVMHEALHNHYTQKSLSLSPGK
binds: all assays above
